According to paper PMC10746258:
These are yes or no findings as the source states them, for the method shown. In cells and extracts the contact can be indirect. Some binding calls cover weakened binding; strength is not graded here.

Sequences of proteins named here, by UniProt entry; tags and fusion partners are left off.
UniProt P36402: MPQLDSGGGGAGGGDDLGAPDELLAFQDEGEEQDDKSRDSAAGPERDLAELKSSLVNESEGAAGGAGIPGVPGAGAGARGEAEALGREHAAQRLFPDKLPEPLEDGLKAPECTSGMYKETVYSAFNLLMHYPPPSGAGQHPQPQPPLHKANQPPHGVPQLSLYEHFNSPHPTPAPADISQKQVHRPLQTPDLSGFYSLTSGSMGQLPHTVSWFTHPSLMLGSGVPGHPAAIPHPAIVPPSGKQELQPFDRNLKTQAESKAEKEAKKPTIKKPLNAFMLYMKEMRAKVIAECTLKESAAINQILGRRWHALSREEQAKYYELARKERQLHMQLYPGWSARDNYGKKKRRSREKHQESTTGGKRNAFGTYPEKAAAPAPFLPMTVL
UniProt P35222: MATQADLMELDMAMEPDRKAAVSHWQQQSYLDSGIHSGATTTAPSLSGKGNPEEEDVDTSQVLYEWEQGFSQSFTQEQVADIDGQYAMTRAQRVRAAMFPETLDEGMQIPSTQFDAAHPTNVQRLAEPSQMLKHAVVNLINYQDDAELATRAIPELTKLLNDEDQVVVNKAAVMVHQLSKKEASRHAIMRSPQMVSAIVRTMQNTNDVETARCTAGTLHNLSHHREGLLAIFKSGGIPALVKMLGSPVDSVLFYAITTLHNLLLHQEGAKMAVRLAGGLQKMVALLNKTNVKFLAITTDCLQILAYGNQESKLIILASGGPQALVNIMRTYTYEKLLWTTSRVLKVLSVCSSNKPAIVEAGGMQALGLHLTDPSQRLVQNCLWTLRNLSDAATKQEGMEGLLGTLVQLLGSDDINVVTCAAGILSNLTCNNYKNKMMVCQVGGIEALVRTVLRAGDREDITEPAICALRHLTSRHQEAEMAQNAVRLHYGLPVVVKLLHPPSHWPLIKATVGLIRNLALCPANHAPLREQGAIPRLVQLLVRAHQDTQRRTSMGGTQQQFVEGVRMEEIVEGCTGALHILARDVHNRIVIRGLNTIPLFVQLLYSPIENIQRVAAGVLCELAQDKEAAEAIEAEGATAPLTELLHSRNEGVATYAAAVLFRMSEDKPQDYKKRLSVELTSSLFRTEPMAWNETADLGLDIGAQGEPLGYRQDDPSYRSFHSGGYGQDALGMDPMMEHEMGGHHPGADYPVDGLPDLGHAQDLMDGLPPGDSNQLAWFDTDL

Target: TCF1 (human (endogenous in HEK 293T)) (UniProt P36402)
Assay: co-IP

binding: binds
Substance: CTNNB1/β-catenin (from UniProt P35222 1-781)
